Test results reported in the supplement of paper PMC10735217.
Counter-ions that a name gives are not always drawn. Some of the results follow. Repeats in this data set agree poorly, so a single value says little.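 Human kidney-derived cells stably carry a construct in which eight TEAD-binding elements drive luciferase, measured by luminescence in a drug-repurposing library screen. A hit is any compound whose signal exceeds the plate mean by more than five robust Z scores.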

Test system: HEK293A TEAD-LUC reporter
Test: TEAD-luciferase reporter activity (YAP activation), robust Z score vs plate; higher = stronger YAP/TEAD activation
Settings: 24 h

Compound	TEAD-luciferase reporter activity (compound concentration: 200 nM)	TEAD-luciferase reporter activity (compound concentration: 2 uM)	TEAD-luciferase reporter activity (compound concentration: 10 uM)
CCOP(=O)(OCC)C1(P(=O)(OCC)OCC)CC(C(=O)c2ccccc2)=NN1	inactive: -0.773	inactive: -0.644	inactive: 2.11
CS(=O)(=O)Nc1cc2c(cc1Sc1ccc(F)cc1F)C(=O)CC2	inactive: -1.24	inactive: 0.00553	inactive: -0.663
O=C(O)CCCN1CCC(O[C@@H](c2ccc(Cl)cc2)c2ccccn2)CC1 [bepotastine besilate]	inactive: 0.0578	inactive: -0.471	active: 5.14
CC(C)c1cc2ccccn2c1C(=O)c1ccc(OCCCNC(C)(C)C)cc1 [brinazarone]	inactive: 0.0608	inactive: 0.219	inactive: 0.508
CCOC(=O)C1=C(C)NC(CN(C)C)=C(C(=O)OCC)C1c1ccccc1/C=C/C(=O)OC(C)(C)C (stereo not drawn)	inactive: -0.907	inactive: -0.943	inactive: -2.25
O=c1oc2ccccc2cc1Oc1ccc(Cl)cc1Cl	inactive: -1.47	inactive: 0.743	inactive: 2.29
CNC(=O)[C@@H](c1ccccc1)N1CCc2cc(OC)c(OC)cc2[C@@H]1CCc1ccc(C(F)(F)F)cc1 [Almorexant]	inactive: 0.246	inactive: -1.77	inactive: -0.435
O=C(O)c1ccc2nc(-c3cc(Cl)cc(Cl)c3)oc2c1	inactive: 0.897	inactive: 0.323	active: 6.34
COc1ccc(/C=C2\C(=O)OC[C@@H]2Cc2ccc3c(c2)OCO3)cc1OC [Kaerophyllin]	inactive: -0.366	inactive: -1.13	inactive: -0.937
O=c1c2c(Cc3ccccc3)n[nH]c2c2cccnc2n1-c1ccccc1	inactive: 0.336	inactive: 1.56	inactive: 1.03
CN(c1ccc(N2C[C@@H](CN)OC2=O)cc1F)S(C)(=O)=O	inactive: -0.636	inactive: -0.737	inactive: -0.381
O=C1NC(=O)C2=C(CCCC2)C1=Cc1ccccc1	inactive: -1.32	inactive: -2.01	inactive: -0.364
Cn1cc(-c2cnc3[nH]cc(Cc4cc(F)c(OCc5nc6ccccc6[nH]5)cc4Cl)c3c2)cn1	inactive: -1.79	inactive: -0.623	inactive: -1.56
CCCCCCN(C)CCCC(C#N)(c1cc(OC)c(OC)c(OC)c1)C(C)C (stereo not drawn)	inactive: -2.05	inactive: -1.09	inactive: -0.284
COc1ccc2c(=O)c(C)c(-c3ccccc3)oc2c1CN(C)C [Dimefline Hydrochloride]	inactive: -0.0969	inactive: -0.272	inactive: -0.815
NC(=O)c1ncn([C@@H]2O[C@H](CO)[C@@H](O)[C@H]2O)n1 [Ribavirin]	inactive: -0.721	inactive: -0.929	inactive: 0.0448
CCCNc1nc(NCCC)nc(N(C)OC)n1	inactive: -0.3	inactive: 0.815	inactive: -0.329
Cc1c(C)c2c(c(C)c1O)CCC(C)(COc1ccc(CC3SC(=O)NC3=O)cc1)O2 (stereo not drawn) [Troglitazone]	inactive: 0.447	–	inactive: -1.27
Cc1c(C)c2c(c(C)c1O)CCC(C)(COc1ccc(CC3SC(=O)NC3=O)cc1)O2 (stereo not drawn) [troglitazone]	–	inactive: -0.664	–

Compound	TEAD-luciferase reporter activity (compound concentration: 200 nM)	TEAD-luciferase reporter activity (compound concentration: 2 uM)	TEAD-luciferase reporter activity (compound concentration: 10 uM)
CNc1cccc(CCOc2ccc3c(c2)CN(CC(F)(F)F)C(=O)[C@H](CC(=O)O)C3)n1	inactive: 0.666	inactive: -2.13	inactive: -0.838
CN(C)C1C(O)=C(C(N)=O)C(=O)C2(O)C(O)=C3C(=O)c4c(O)cccc4C(C)(O)C3CC12 (stereo not drawn) [Tetracycline]	–	inactive: -2.05	–
CN(C)C1C(O)=C(C(N)=O)C(=O)C2(O)C(O)=C3C(=O)c4c(O)cccc4C(C)(O)C3CC12 (stereo not drawn) [Helicobacter pylori therapy, P]	inactive: -2.07	–	inactive: -1.08
COc1cc(NCc2ccc3nc(N)nc(N)c3c2C)cc(OC)c1OC [trimetrexate glucuronate]	–	inactive: -0.835	–
COc1cc(NCc2ccc3nc(N)nc(N)c3c2C)cc(OC)c1OC [trimetrexate]	inactive: -0.663	inactive: -0.923	inactive: -0.5
CC1(C)Cc2ccccc2C=[N+]1[O-]	inactive: -0.627	inactive: -0.552	inactive: -0.599
COc1ccc(C(=O)NC2CCCN(Cc3ccc(-c4cc(C)cc(C)c4)cc3)C2)cc1 (stereo not drawn)	inactive: 0.507	–	inactive: 0.666
CO/N=C(/C(=O)NC1C(=O)N2C(C(=O)O)=C(C[n+]3csc(CCO)c3C)CSC12)c1csc(N)n1 (stereo not drawn)	inactive: 0.448	inactive: -0.558	inactive: -0.0461
Cc1cccc(-c2[nH]c(C(C)(C)C)nc2-c2ccc3nccnc3c2)n1	inactive: 0.0459	inactive: -1.14	inactive: -2.28
COc1ccc2c(C3COC(CCCNC(C)=O)OC3)cccc2c1 (stereo not drawn)	inactive: -0.84	inactive: 0.62	active: 5.56
CC1=C(/C=C/C(C)=C/C=C/C(C)=C/C=C/C=C(C)/C=C/C=C(C)/C=C/C2=C(C)CCCC2(C)C)C(C)(C)CCC1 [B-Carotene]	inactive: -1.58	–	inactive: 0.165
CC1=C(/C=C/C(C)=C/C=C/C(C)=C/C=C/C=C(C)/C=C/C=C(C)/C=C/C2=C(C)CCCC2(C)C)C(C)(C)CCC1 [Provitamin A]	–	inactive: -0.668	–
CCOC(=O)Cc1nc(-c2ccc(Cl)cc2)oc1OCC	inactive: -1.22	inactive: -0.343	inactive: -0.979
CC(C)(C)NC(=O)c1ccc(Oc2cc(F)c(CC(=O)O)cc2Cl)c(NS(=O)(=O)c2c(Cl)cccc2Cl)c1	inactive: 0.432	inactive: -1.39	inactive: -0.639
NC(=O)C1(N2CCCCC2)CCN(CCCN2c3ccccc3CCc3ccc(Cl)cc32)CC1	inactive: 1.09	inactive: 1.26	inactive: -0.193
CCNC1CN(CCCOC)S(=O)(=O)c2sc(S(N)(=O)=O)cc21 (stereo not drawn) [brinzolamide]	inactive: 2.56	inactive: -1.36	inactive: 2.42
CC(=O)N1CCN([C@H]2CCN(C(=O)N(C)[C@H](C)c3cc(C(F)(F)F)cc(C(F)(F)F)c3)[C@@H](c3ccc(F)cc3C)C2)CC1 [Casopitant mesylate]	inactive: -0.718	inactive: -1.39	inactive: 1.14
CC(C)CCN(C)C1CCc2ccccc21 (stereo not drawn)	inactive: 0.576	–	inactive: -1.54
CCCC1([C@H](O)C/C=C/[C@H]2[C@H](O)CC(=O)[C@@H]2CCCCCCC(=O)OC)CCC1 [butaprost, BTG]	–	inactive: -0.138	–

Whole records from above. Values in the order: TEAD-luciferase reporter activity (compound concentration: 200 nM)	TEAD-luciferase reporter activity (compound concentration: 2 uM)	TEAD-luciferase reporter activity (compound concentration: 10 uM)
CC(C)c1cc2ccccn2c1C(=O)c1ccc(OCCCNC(C)(C)C)cc1 [brinazarone] as listed: inactive: 0.0608	inactive: 0.219	inactive: 0.508
CO/N=C(/C(=O)NC1C(=O)N2C(C(=O)O)=C(C[n+]3csc(CCO)c3C)CSC12)c1csc(N)n1 (stereo not drawn) as listed: inactive: 0.448	inactive: -0.558	inactive: -0.0461

Next part:

Compound	TEAD-luciferase reporter activity (compound concentration: 200 nM)	TEAD-luciferase reporter activity (compound concentration: 2 uM)	TEAD-luciferase reporter activity (compound concentration: 10 uM)
CCCC1([C@H](O)C/C=C/[C@H]2[C@H](O)CC(=O)[C@@H]2CCCCCCC(=O)OC)CCC1	inactive: -1.69	–	inactive: -1.78
CC(C)NCC(O)COc1ccc(CC(N)=O)cc1 [(S)-atenolol]	–	inactive: -0.538	–
CC(C)NCC(O)COc1ccc(CC(N)=O)cc1 (stereo not drawn)	inactive: 1.41	–	inactive: 1.18
CC1=C(C#N)C(c2cccc3ncc(-c4ccccc4)cc23)C(C(=O)OC(C)C)=C(N)N1 (stereo not drawn)	inactive: -2.17	inactive: -0.289	inactive: -1.79
CCN(CC)CCNc1nccc(NCc2ccc(CNc3nc(Cl)ncc3F)cc2)n1	inactive: 0.303	inactive: 1.33	inactive: 0.519
O=S1(=O)N[C@H]2CCCN2c2ccccc21	inactive: -0.954	inactive: 1.47	inactive: 1.45
O=C1NCCNC1c1cccs1 (stereo not drawn)	inactive: -0.0216	inactive: -1.44	inactive: 0.0315
CCN(C/C=C/C#CC(C)(C)C)Cc1cccc(OCc2cc(-c3ccsc3)cs2)c1	inactive: 0.813	inactive: 1.19	inactive: -0.433
Cc1cccc(C2(CN)C3CC4CC(C3)CC2C4)c1 (stereo not drawn)	inactive: -1.47	inactive: 3.59	inactive: 0.991
CCCCCCCCCCCCCCCC(=O)Nc1ccn([C@@H]2O[C@H](CO)[C@@H](O)[C@@H]2C#N)c(=O)n1 [Sapacitabine]	inactive: 0.156	inactive: -0.439	inactive: 2.52
CC[C@H](CN1CCCC1)C(=O)c1cc(-c2ccccc2)no1	inactive: -0.169	inactive: -0.496	inactive: 2.61
COc1ccc(OC2CN(Cc3ccc(F)cc3)C2)cc1	inactive: 0.436	–	inactive: -0.142
CC(C)(C)C(=O)OCOC(=O)[C@@H]1N2C(=O)[C@@H](/N=C/N3CCCCCC3)[C@H]2SC1(C)C [Pivmecillinam hydrochloride]	inactive: 0.168	inactive: 0.49	inactive: 3.21
CN[C@H](C(=O)N[C@H](C(=O)N(C)[C@H](/C=C(\C)C(=O)O)C(C)C)C(C)(C)C)C(C)(C)c1ccccc1 [taltobulin]	inactive: -0.916	active: 5.51	active: 8.42
CO/N=C/C1=CCCN(C(=O)Oc2ccc(Cl)cc2)C1	inactive: -1.25	inactive: -2	inactive: 0.162
CCOC(=O)c1ccc2c(c1)NCc1cccc(OC)c1O2	inactive: 1.06	inactive: -0.125	inactive: 1.78
CCC(C)NS(=O)(=O)CCN1C(=O)c2ccccc2C1=O (stereo not drawn)	inactive: 4.59	inactive: -2.11	inactive: -0.419
COc1cccc(-c2nc(CO[C@H]3CCC[C@@H](OCc4cccc(C)c4C(=O)O)C3)c(C)o2)c1	inactive: -0.862	inactive: 0.636	inactive: 1.59
